The target in assay [1] is T1, KATP channel subunit Kir6.2 (mouse (endogenous in MIN6)) (UniProt Q61743).
T1 sequence: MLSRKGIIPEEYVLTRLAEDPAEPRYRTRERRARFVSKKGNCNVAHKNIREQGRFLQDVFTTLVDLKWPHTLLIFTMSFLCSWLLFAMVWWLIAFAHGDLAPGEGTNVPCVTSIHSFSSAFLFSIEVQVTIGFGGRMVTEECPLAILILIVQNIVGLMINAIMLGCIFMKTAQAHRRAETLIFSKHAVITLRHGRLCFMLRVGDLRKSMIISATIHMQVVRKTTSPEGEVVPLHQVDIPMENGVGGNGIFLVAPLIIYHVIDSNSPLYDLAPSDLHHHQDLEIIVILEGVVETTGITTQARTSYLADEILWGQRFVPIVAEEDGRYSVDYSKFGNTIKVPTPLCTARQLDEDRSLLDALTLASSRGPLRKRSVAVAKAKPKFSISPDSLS
Description: co-IP; vesicle IP of MIN6 postnuclear fractions (10 mM HEPES pH 7.4, 150 mM NaCl, 0.1% Triton X-100) on protein A beads with anti-CaV1.2, anti-Kir6.2 or anti-STIP1 antibody or normal rabbit IgG, immunoblotting; cells transduced with scrambled-control or KIF5B-knockdown miRNA for 6 days and treated with 10 uM MG-132 for 6 h; also non-transduced against KIF5B- and Hsc70-overexpressing cells.

By UniProt entry, the sequences of proteins in these tests, tags left out.
UniProt Q61768: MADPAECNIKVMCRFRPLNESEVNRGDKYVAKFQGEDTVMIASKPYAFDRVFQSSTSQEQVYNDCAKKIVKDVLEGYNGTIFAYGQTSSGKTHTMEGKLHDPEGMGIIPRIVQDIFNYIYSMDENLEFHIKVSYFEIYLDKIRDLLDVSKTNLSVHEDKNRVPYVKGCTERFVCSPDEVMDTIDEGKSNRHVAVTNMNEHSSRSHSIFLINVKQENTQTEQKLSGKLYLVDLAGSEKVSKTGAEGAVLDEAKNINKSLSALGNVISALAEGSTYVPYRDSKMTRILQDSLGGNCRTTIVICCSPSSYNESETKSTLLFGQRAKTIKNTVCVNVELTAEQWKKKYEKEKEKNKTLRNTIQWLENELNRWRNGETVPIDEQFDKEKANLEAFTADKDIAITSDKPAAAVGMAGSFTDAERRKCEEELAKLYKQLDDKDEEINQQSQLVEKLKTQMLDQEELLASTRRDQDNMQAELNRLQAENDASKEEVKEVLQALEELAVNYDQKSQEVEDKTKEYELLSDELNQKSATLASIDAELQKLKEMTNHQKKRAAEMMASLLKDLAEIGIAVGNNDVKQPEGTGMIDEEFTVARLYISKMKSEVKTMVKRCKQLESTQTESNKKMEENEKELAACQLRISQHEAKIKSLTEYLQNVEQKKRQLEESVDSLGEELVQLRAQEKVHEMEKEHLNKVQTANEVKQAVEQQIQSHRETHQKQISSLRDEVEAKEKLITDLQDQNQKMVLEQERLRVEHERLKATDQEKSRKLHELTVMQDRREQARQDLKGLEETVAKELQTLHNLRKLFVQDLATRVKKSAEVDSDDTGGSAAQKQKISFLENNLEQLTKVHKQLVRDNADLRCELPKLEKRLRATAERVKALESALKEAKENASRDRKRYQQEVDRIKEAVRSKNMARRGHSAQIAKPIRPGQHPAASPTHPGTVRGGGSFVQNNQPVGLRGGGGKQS

The target in assay [2] is voltage-gated calcium channel CaV1.2 (mouse (endogenous in MIN6 and in mouse primary beta cells)) (UniProt Q01815). Described as above.

No constants are given. Whether binding was seen depends on the method and setting. Binding seen in cells or lysates may run through a third protein. Some entries that bind do so weakly or less than the wild type.

Consider “STIP1 (Hop) protein (from UniProt Q60864 1-543)”, for which the binding entry in assay [1] is recorded as “binds weakly”; in assay [2], “binds”.
Turning to KIF5B (from UniProt Q61768 1-963), in assay [1], the binding result is on record as “binds”.
Regarding “voltage-gated calcium channel CaV1.2 (from UniProt Q01815 1-2139)”, in assay [1], the binding entry is “binds weakly”.

For the origin of these results see publication PMC11549326.
